From PMC9778238, “How Discoloration of Porcine Cruor Hydrolysate Allowed the Identification of New Antifungal Peptides” (Foods, 2022)

Assay: Loss of peptide on discoloration (heme precipitation at pH 4.5), peak area in RP-UPLC-MS/MS
Settings: variation of the peak area of the peptide between raw and discolored hydrolysate spectra; 100 = absent in discolored hydrolysate

LVVYPWTQRF [porcine hemoglobin fragment β 33–42]
Decrease (%): 11.6%

NLSHGSDQVKAHGQKVADALTKAVGHLDDLPGAL [porcine hemoglobin fragment α 47–80]
Decrease (%): 16.6%

DQLHVDPENFRLLGNVIVVVLARRLGHDFNPNVQ [porcine hemoglobin fragment β 95–128]
Decrease (%): 100.0%

FESF [porcine hemoglobin fragment β 43–46]
Decrease (%): 10.8%

HVDPENFRLLGNVIVVVLARRLGHDFNPNVQ [porcine hemoglobin fragment β 98–128, synthesized]
Decrease (%): 90.0%

LLVVYPWTQRF [porcine hemoglobin fragment β 32–42]
Decrease (%): 47.3%
